Data reported in article PMC6967093.
These are yes or no findings as the source states them, for the method shown. Binding seen in cells or lysates may run through a third protein. Some entries that bind do so weakly or less than the wild type.

The chains behind the UniProt entries cited, without tags or fusion partners.
UniProt P01106: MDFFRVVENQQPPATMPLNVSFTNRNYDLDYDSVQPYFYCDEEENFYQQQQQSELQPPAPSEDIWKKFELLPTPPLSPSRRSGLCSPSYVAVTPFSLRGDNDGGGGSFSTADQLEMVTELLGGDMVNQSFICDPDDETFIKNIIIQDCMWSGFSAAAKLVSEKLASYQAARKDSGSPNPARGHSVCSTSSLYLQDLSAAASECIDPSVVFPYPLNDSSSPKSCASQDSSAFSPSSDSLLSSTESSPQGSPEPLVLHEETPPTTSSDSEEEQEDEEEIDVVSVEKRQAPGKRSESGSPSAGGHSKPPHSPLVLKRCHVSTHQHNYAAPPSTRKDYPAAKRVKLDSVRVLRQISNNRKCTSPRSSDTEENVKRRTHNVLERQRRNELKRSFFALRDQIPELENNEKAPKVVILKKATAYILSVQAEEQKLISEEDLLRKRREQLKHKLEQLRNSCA
UniProt Q96DH6: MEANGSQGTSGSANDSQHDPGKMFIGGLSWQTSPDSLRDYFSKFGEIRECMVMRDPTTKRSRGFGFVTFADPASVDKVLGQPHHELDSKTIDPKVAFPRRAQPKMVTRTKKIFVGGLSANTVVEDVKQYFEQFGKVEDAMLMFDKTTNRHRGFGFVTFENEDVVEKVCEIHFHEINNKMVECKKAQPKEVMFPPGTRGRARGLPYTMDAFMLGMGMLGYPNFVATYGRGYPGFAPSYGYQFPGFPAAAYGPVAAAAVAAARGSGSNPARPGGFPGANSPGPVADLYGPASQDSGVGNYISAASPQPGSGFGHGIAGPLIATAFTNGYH

Experiments:
[1] = target: c-Myc (human (endogenous in AsPC-1 and BxPC-3)) (UniProt P01106); assay: co-IP; endogenous proteins in whole lysates of AsPC-1 and BxPC-3 cells (IP lysis buffer); MSI2, ZEB1, c-Myc, pERK and IgG antibodies on magnetic beads, incubated with lysate supernatants overnight at 4 °C; Western blot with MSI2, ZEB1, pERK and c-Myc antibodies
[2] = target: T1, ZEB1 (human (endogenous in AsPC-1 and BxPC-3)) (UniProt P37275); assay: as above
T1 sequence: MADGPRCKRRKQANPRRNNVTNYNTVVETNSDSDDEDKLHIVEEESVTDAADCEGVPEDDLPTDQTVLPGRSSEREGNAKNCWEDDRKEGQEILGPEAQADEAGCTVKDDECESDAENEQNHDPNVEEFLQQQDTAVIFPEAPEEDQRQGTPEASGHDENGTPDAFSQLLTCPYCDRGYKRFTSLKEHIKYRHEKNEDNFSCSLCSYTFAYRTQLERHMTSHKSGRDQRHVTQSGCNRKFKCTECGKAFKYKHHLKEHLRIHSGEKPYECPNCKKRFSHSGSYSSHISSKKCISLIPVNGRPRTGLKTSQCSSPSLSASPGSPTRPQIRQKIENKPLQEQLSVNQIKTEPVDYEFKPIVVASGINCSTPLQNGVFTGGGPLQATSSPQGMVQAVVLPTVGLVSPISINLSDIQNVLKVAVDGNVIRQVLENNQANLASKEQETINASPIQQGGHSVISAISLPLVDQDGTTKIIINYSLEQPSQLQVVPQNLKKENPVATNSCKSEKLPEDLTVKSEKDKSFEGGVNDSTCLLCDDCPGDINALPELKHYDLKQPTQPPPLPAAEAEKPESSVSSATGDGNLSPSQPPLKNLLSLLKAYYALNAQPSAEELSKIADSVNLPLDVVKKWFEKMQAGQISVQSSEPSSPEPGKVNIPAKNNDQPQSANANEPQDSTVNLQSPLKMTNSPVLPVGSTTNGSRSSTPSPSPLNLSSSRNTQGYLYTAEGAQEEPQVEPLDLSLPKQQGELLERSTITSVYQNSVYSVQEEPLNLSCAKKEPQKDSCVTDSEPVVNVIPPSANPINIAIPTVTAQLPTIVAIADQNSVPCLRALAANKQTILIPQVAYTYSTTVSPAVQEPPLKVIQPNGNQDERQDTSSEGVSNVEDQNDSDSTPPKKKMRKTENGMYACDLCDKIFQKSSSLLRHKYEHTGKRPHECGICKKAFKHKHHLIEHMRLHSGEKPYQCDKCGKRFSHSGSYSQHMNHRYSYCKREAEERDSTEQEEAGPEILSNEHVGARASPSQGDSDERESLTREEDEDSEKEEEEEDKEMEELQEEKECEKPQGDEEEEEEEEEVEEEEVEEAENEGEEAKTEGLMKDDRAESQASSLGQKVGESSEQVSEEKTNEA

Musashi RNA-binding protein 2 (from UniProt Q96DH6 1-328)
binding [1]: binds | binding [2]: binds
